The record followed here is publication PMC12557607.

In test [1] the target is FAM136A (FAM136A-HA and FAM136A-FLAG, co-expressed) (human) (UniProt Q96C01). The test is described as follows: co-IP; FAM136A-FLAG precipitated from HEK293 cells co-expressing FAM136A-FLAG and FAM136A-HA, native lysis; blot against HA and FLAG.
The target of another test is T1, MIA40-Strep (human) (UniProt Q8N4Q1).
T1 sequence: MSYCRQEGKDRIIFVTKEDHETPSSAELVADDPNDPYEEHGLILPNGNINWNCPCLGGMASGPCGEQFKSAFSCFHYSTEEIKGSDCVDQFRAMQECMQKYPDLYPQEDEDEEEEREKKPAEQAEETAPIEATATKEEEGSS
The test is described as follows: co-IP; affinity precipitation of MIA40-Strep with streptactin beads from HEK293 cells after NEM; native lysis; blot for FAM136A.

Another test has as its target FAM136A-HA (human) (UniProt Q96C01). The test is described as follows: cross-linking; intact HEK293 cells expressing FAM136A-HA, disuccinimidyl glutarate (DSG) 0-1000 uM, room temperature, 30 min or other times; stopped with Tris; blot against HA.
For test [2], the target named is T2, GST-tagged MIA40 C4, 53, 55S (SPS) (human) (UniProt Q8N4Q1).
T2 sequence: T1 sequence with C4S, C53S, C55S
The test is described as follows: pull-down; GST-tagged MIA40 variants or GST on glutathione beads, incubated with radiolabelled in vitro translated FAM136A-HA lysate in IP buffer (100 mM NaCl, 100 mM NaPi, 1 % Triton X-100), 20 min, room temperature; SDS-PAGE and autoradiography; only the target purified.

Test [3] concerns the target T3, GST-tagged MIA40 F68E (human) (UniProt Q8N4Q1).
T3 sequence: T1 sequence with F68E
The test is described as above.

Test [4] has as its target T4, GST-tagged MIA40 wild-type (human) (UniProt Q8N4Q1).
T4 sequence: T1 sequence
The description is as above.

A further test concerns the target T5, MIA40(C4S)-His (human) (UniProt Q8N4Q1).
T5 sequence: T1 sequence with C4S
The test is described as follows: disulphide-linked complex on non-reducing SDS-PAGE (in vitro oxidation kinetics); 30 uM recombinant MIA40(C4S) mixed with in vitro translated 35S-labelled reduced FAM136A; 30 °C, 1.0 % oxygen; 10 mM EDTA, 200 mM NaCl, 20 mM Tris/Cl pH 7.4; mmPEG12 modification, autoradiography; only the target purified.

Numbering of substitutions follows the chain as printed. These are yes or no findings as the source states them, for the method shown. For some of these results: Binding seen in cells or lysates may run through a third protein. Some binding calls cover weakened binding; strength is not graded here. For some of these results: Where a sequence is shown, tags or fusion partners need not be part of it.

Turning to “FAM136A (FAM136A-HA and FAM136A-FLAG, co-expressed) (from UniProt Q96C01 1-138)”, the binding entry in test [1] is “binds”.
Turning to FAM136A (from UniProt Q96C01 1-138), in the test with MIA40-Strep (human), the binding entry is recorded as “binds”.
In the case of FAM136A-HA (from UniProt Q96C01 1-138), the binding entry in the test with FAM136A-HA (human) is reported as “binds”.
Consider “[35S]-labelled in vitro translated FAM136A-HA (from UniProt Q96C01 1-138)”, for which the binding result (in test [2]; in test [3]; in test [4]; in the test with MIA40(C4S)-His (human)) was “binds” in each case.
